According to PMC7461561:
These are yes or no findings as the source states them, for the method shown. In cells and extracts the contact can be indirect. These calls come from enrichment with a bait or labelling near it, and not all partners need be listed.

The chains behind the UniProt entries cited, without tags or fusion partners.
UniProt O60260: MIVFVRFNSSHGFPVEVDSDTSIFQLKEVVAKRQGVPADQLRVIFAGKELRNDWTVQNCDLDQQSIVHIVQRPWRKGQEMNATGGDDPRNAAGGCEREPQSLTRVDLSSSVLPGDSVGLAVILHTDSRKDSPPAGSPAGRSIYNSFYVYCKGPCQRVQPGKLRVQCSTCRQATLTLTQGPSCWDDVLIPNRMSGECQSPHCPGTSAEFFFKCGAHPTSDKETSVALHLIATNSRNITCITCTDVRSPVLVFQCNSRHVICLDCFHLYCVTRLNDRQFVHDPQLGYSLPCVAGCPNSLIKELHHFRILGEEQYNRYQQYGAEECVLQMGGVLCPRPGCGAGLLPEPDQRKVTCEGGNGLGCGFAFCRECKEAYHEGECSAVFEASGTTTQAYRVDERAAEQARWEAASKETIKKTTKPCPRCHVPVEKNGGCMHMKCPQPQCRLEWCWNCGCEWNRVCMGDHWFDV

molecular target: Parkin (human (endogenous in platelets)) (UniProt O60260); assay: affinity purification with mass spectrometry; IP with Parkin-specific antibodies from human DM platelet lysate; silver-stained gel, 10 bands enriched in DM against HC cut out; in-gel trypsin digestion, LC-MS/MS, Mascot search

Row | Binder | binding
1 | Mitochondrial import inner membrane translocase subunit TIM16 (protein, UniProt Q9Y3D7 1-125) MAKYLAQIIVMGVQVVGRAFARALRQEFAASRAAADARGRAGHRSAAASNLSGLSLQEAQQILNVSKLSPEEVQKNYEHLFKVNDKSVGGSFYLQSKVVRAKERLDEELKIQAQEDREKGQMPHT | binds
2 | Thioredoxin domain-containing protein 9 (protein, UniProt O14530 1-226) MEADASVDMFSKVLEHQLLQTTKLVEEHLDSEIQKLDQMDEDELERLKEKRLQALRKAQQQKQEWLSKGHGEYREIPSERDFFQEVKESENVVCHFYRDSTFRCKILDRHLAILSKKHLETKFLKLNVEKAPFLCERLHIKVIPTLALLKDGKTQDYVVGFTDLGNTDDFTTETLEWRLGSSDILNYSGNLMEPPFQNQKKFGTNFTKLEKKTIRGKKYDSDSDDD | binds
3 | Glutaredoxin domain-containing cysteine-rich protein 2 (protein, UniProt A6NFK2 1-248) MEDPEKKLNQKSDGKPRKVRFKISSSYSGRVLKQVFEDGQELESPKEEYPHSFLQESLETMDGVYGSGEVPRPQMCSPKLTAQRISVFREGNAYTLAGGQPRFNDYKANDHKPLPIIDFGKIIIYTNNLKIIRTPMDKRDFVRKILQKEEEAEEESLMNKEESYGGRDQHDRPLVEAESTLPQNRYTQEGDIPEDSCFHCRGSGSATCSLCHGSKFSMLANRFKESYRALRCPACNENGLQPCQICNQ | binds
4 | Ubiquitin carboxyl-terminal hydrolase 8 (protein, UniProt P40818 1-1118) MPAVASVPKELYLSSSLKDLNKKTEVKPEKISTKSYVHSALKIFKTAEECRLDRDEERAYVLYMKYVTVYNLIKKRPDFKQQQDYFHSILGPGNIKKAVEEAERLSESLKLRYEEAEVRKKLEEKDRQEEAQRLQQKRQETGREDGGTLAKGSLENVLDSKDKTQKSNGEKNEKCETKEKGAITAKELYTMMTDKNISLIIMDARRMQDYQDSCILHSLSVPEEAISPGVTASWIEAHLPDDSKDTWKKRGNVEYVVLLDWFSSAKDLQIGTTLRSLKDALFKWESKTVLRNEPLVLEGGYENWLLCYPQYTTNAKVTPPPRRQNEEVSISLDFTYPSLEESIPSKPAAQTPPASIEVDENIELISGQNERMGPLNISTPVEPVAASKSDVSPIIQPVPSIKNVPQIDRTKKPAVKLPEEHRIKSESTNHEQQSPQSGKVIPDRSTKPVVFSPTLMLTDEEKARIHAETALLMEKNKQEKELRERQQEEQKEKLRKEEQEQKAKKKQEAEENEITEKQQKAKEEMEKKESEQAKKEDKETSAKRGKEITGVKRQSKSEHETSDAKKSVEDRGKRCPTPEIQKKSTGDVPHTSVTGDSGSGKPFKIKGQPESGILRTGTFREDTDDTERNKAQREPLTRARSEEMGRIVPGLPSGWAKFLDPITGTFRYYHSPTNTVHMYPPEMAPSSAPPSTPPTHKAKPQIPAERDREPSKLKRSYSSPDITQAIQEEEKRKPTVTPTVNRENKPTCYPKAEISRLSASQIRNLNPVFGGSGPALTGLRNLGNTCYMNSILQCLCNAPHLADYFNRNCYQDDINRSNLLGHKGEVAEEFGIIMKALWTGQYRYISPKDFKITIGKINDQFAGYSQQDSQELLLFLMDGLHEDLNKADNRKRYKEENNDHLDDFKAAEHAWQKHKQLNESIIVALFQGQFKSTVQCLTCHKKSRTFEAFMYLSLPLASTSKCTLQDCLRLFSKEEKLTDNNRFYCSHCRARRDSLKKIEIWKLPPVLLVHLKRFSYDGRWKQKLQTSVDFPLENLDLSQYVIGPKNNLKKYNLFSVSNHYGGLDGGHYTAYCKNAARQRWFKFDDHEVSDISVSSVKSSAAYILFYTSLGPRVTDVAT | binds
5 | Peroxiredoxin-6 (protein, UniProt P30041 1-224) MPGGLLLGDVAPNFEANTTVGRIRFHDFLGDSWGILFSHPRDFTPVCTTELGRAAKLAPEFAKRNVKLIALSIDSVEDHLAWSKDINAYNCEEPTEKLPFPIIDDRNRELAILLGMLDPAEKDEKGMPVTARVVFVFGPDKKLKLSILYPATTGRNFDEILRVVISLQLTAEKRVATPVDWKDGDSVMVLPTIPEEEAKKLFPKGVFTKELPSGKKYLRYTPQP | binds
6 | Protein S100-A8 (protein, UniProt P05109 1-93) MLTELEKALNSIIDVYHKYSLIKGNFHAVYRDDLKKLLETECPQYIRKKGADVWFKELDINTDGAVNFQEFLILVIKMGVAAHKKSHEESHKE | binds
7 | 14-3-3 protein theta (protein, UniProt P27348 1-245) MEKTELIQKAKLAEQAERYDDMATCMKAVTEQGAELSNEERNLLSVAYKNVVGGRRSAWRVISSIEQKTDTSDKKLQLIKDYREKVESELRSICTTVLELLDKYLIANATNPESKVFYLKMKGDYFRYLAEVACGDDRKQTIDNSQGAYQEAFDISKKEMQPTHPIRLGLALNFSVFYYEILNNPELACTLAKTAFDEAIAELDTLNEDSYKDSTLIMQLLRDNLTLWTSDSAGEECDAAEGAEN | binds
8 | Protein disulfide-isomerase A5 (protein, UniProt Q14554 22-519) SSAKVSSLIERISDPKDLKKLLRTRNNVLVLYSKSEVAAENHLRLLSTVAQAVKGQGTICWVDCGDAESRKLCKKMKVDLSPKDKKVELFHYQDGAFHTEYNRAVTFKSIVAFLKDPKGPPLWEEDPGAKDVVHLDSEKDFRRLLKKEEKPLLIMFYAPWCSMCKRMMPHFQKAATQLRGHAVLAGMNVYSSEFENIKEEYSVRGFPTICYFEKGRFLFQYDNYGSTAEDIVEWLKNPQPPQPQVPETPWADEGGSVYHLTDEDFDQFVKEHSSVLVMFHAPWCGHCKKMKPEFEKAAEALHGEADSSGVLAAVDATVNKALAERFHISEFPTLKYFKNGEKYAVPVLRTKKKFLEWMQNPEAPPPPEPTWEEQQTSVLHLVGDNFRETLKKKKHTLVMFYAPWCPHCKKVIPHFTATADAFKDDRKIACAAVDCVKDKNQDLCQQEAVKGYPTFHYYHYGKFAEKYDSDRTELGFTNYIRALREGDHERLGKKKEEL | binds
9 | Multimerin-1 (protein, UniProt Q13201 20-1228) LNNSKHSWTIPEDGNSQKTMPSASVPPNKIQSLQILPTTRVMSAEIATTPEARTSEDSLLKSTLPPSETSAPAEGVRNQTLTSTEKAEGVVKLQNLTLPTNASIKFNPGAESVVLSNSTLKFLQSFARKSNEQATSLNTVGGTGGIGGVGGTGGVGNRAPRETYLSRGDSSSSQRTDYQKSNFETTRGKNWCAYVHTRLSPTVILDNQVTYVPGGKGPCGWTGGSCPQRSQKISNPVYRMQHKIVTSLDWRCCPGYSGPKCQLRAQEQQSLIHTNQAESHTAVGRGVAEQQQQQGCGDPEVMQKMTDQVNYQAMKLTLLQKKIDNISLTVNDVRNTYSSLEGKVSEDKSREFQSLLKGLKSKSINVLIRDIVREQFKIFQNDMQETVAQLFKTVSSLSEDLESTRQIIQKVNESVVSIAAQQKFVLVQENRPTLTDIVELRNHIVNVRQEMTLTCEKPIKELEVKQTHLEGALEQEHSRSILYYESLNKTLSKLKEVHEQLLSTEQVSDQKNAPAAESVSNNVTEYMSTLHENIKKQSLMMLQMFEDLHIQESKINNLTVSLEMEKESLRGECEDMLSKCRNDFKFQLKDTEENLHVLNQTLAEVLFPMDNKMDKMSEQLNDLTYDMEILQPLLEQGASLRQTMTYEQPKEAIVIRKKIENLTSAVNSLNFIIKELTKRHNLLRNEVQGRDDALERRINEYALEMEDGLNKTMTIINNAIDFIQDNYALKETLSTIKDNSEIHHKCTSDMETILTFIPQFHRLNDSIQTLVNDNQRYNFVLQVAKTLAGIPRDEKLNQSNFQKMYQMFNETTSQVRKYQQNMSHLEEKLLLTTKISKNFETRLQDIESKVTQTLIPYYISVKKGSVVTNERDQALQLQVLNSRFKALEAKSIHLSINFFSLNKTLHEVLTMCHNASTSVSELNATIPKWIKHSLPDIQLLQKGLTEFVEPIIQIKTQAALSNLTCCIDRSLPGSLANVVKSQKQVKSLPKKINALKKPTVNLTTVLIGRTQRNTDNIIYPEEYSSCSRHPCQNGGTCINGRTSFTCACRHPFTGDNCTIKLVEENALAPDFSKGSYRYAPMVAFFASHTYGMTIPGPILFNNLDVNYGASYTPRTGKFRIPYLGVYVFKYTIESFSAHISGFLVVDGIDKLAFESENINSEIHCDRVLTGDALLELNYGQEVWLRLAKGTIPAKFPPVTTFSGYLLYRT | binds
10 | 14-3-3 protein gamma (protein, UniProt P61981 1-247) MVDREQLVQKARLAEQAERYDDMAAAMKNVTELNEPLSNEERNLLSVAYKNVVGARRSSWRVISSIEQKTSADGNEKKIEMVRAYREKIEKELEAVCQDVLSLLDNYLIKNCSETQYESKVFYLKMKGDYYRYLAEVATGEKRATVVESSEKAYSEAHEISKEHMQPTHPIRLGLALNYSVFYYEIQNAPEQACHLAKTAFDDAIAELDTLNEDSYKDSTLIMQLLRDNLTLWTSDQQDDDGGEGNN | binds
11 | Platelet factor 4 (protein, UniProt P02776 32-101) EAEEDGDLQCLCVKTTSQVRPRHITSLEVIKAGPHCPTAQLIATLKNGRKICLDLQAPLYKKIIKKLLES | binds
12 | Protein disulfide-isomerase A6 (protein, UniProt Q15084 20-440) LYSSSDDVIELTPSNFNREVIQSDSLWLVEFYAPWCGHCQRLTPEWKKAATALKDVVKVGAVDADKHHSLGGQYGVQGFPTIKIFGSNKNRPEDYQGGRTGEAIVDAALSALRQLVKDRLGGRSGGYSSGKQGRSDSSSKKDVIELTDDSFDKNVLDSEDVWMVEFYAPWCGHCKNLEPEWAAAASEVKEQTKGKVKLAAVDATVNQVLASRYGIRGFPTIKIFQKGESPVDYDGGRTRSDIVSRALDLFSDNAPPPELLEIINEDIAKRTCEEHQLCVVAVLPHILDTGAAGRNSYLEVLLKLADKYKKKMWGWLWTEAGAQSELETALGIGGFGYPAMAAINARKMKFALLKGSFSEQGINEFLRELSFGRGSTAPVGGGAFPTIVEREPWDGRDGELPVEDDIDLSDVELDDLGKDEL | binds
13 | ATP synthase subunit e, mitochondrial (protein, UniProt P56385 1-69) MVPPVQVSPLIKLGRYSALFLGVAYGATRYNYLKPRAEEERRIAAEEKKKQDELKRIARELAEDDSILK | binds
14 | Protein S100-A9 (protein, UniProt P06702 1-114) MTCKMSQLERNIETIINTFHQYSVKLGHPDTLNQGEFKELVRKDLQNFLKKENKNEKVIEHIMEDLDTNADKQLSFEEFIMLMARLTWASHEKMHEGDEGPGHHHKPGLGEGTP | binds
15 | Cytosolic Fe-S cluster assembly factor NUBP2 (protein, UniProt Q9Y5Y2 1-271) MEAAAEPGNLAGVRHIILVLSGKGGVGKSTISTELALALRHAGKKVGILDVDLCGPSIPRMLGAQGRAVHQCDRGWAPVFLDREQSISLMSVGFLLEKPDEAVVWRGPKKNALIKQFVSDVAWGELDYLVVDTPPGTSDEHMATIEALRPYQPLGALVVTTPQAVSVGDVRRELTFCRKTGLRVMGIVENMSGFTCPHCTECTSVFSRGGGEELAQLAGVPFLGSVPLDPALMRTLEEGHDFIQEFPGSPAFAALTSIAQKILDATPACLP | binds
16 | Single-Stranded DNA-binding protein, mitochondrial (protein, UniProt Q04837 17-148) ESETTTSLVLERSLNRVHLLGRVGQDPVLRQVEGKNPVTIFSLATNEMWRSGDSEVYQLGDVSQKTTWHRISVFRPGLRDVAYQYVKKGSRIYLEGKIDYGEYMDKNNVRRQATTIIADNIIFLSDQTKEKE | binds
